Measurements from patent US20090325959A1 (priority 2008, published 2009).
Read-outs that look alike come from different tables or passages of the source. The match of structure and compound is tentative.

Chains of the proteins cited; added tags and fusions are not shown. Residues count along the entry.
UniProt Q13464, 17-535 limits assumed: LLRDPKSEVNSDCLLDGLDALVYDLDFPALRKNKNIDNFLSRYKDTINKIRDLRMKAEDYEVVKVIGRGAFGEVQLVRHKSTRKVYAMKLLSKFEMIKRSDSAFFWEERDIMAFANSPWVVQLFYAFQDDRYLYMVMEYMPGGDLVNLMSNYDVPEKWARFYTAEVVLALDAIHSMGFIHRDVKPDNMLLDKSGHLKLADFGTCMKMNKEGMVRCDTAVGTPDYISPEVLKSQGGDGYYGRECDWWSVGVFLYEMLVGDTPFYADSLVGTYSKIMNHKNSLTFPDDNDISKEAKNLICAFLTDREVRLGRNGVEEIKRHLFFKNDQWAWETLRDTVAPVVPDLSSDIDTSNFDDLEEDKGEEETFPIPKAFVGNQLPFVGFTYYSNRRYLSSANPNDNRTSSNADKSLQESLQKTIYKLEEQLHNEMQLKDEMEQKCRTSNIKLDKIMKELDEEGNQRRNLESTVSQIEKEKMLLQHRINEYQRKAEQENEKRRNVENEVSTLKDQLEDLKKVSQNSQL
UniProt Q9Y243, whole entry: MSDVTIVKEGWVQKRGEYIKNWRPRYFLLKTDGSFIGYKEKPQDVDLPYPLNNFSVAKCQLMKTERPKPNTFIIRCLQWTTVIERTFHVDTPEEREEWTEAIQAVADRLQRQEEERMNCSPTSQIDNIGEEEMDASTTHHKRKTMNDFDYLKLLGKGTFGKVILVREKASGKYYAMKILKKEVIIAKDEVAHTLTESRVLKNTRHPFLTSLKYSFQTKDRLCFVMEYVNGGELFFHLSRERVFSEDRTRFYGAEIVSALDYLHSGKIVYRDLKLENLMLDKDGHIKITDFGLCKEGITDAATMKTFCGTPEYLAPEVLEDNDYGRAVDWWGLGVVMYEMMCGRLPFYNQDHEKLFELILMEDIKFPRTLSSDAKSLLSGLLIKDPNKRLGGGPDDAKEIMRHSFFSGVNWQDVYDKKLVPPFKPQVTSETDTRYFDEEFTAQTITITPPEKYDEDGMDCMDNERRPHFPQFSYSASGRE
UniProt P23443, 1-421 T412E limits assumed: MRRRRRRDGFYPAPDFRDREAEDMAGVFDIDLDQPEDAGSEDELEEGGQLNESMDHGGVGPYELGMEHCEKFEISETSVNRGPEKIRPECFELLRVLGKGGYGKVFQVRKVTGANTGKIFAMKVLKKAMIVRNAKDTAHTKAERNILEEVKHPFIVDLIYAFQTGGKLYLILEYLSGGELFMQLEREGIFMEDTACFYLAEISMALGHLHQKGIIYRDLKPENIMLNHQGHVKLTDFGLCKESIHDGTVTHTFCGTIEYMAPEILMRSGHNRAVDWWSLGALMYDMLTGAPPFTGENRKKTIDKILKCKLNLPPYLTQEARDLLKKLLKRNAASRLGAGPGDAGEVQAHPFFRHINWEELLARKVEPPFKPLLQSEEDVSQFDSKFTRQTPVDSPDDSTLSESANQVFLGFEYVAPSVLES

Key:
[1] = biological target: ROCK1 (Homo sapiens, UniProt Q13464); assay: Rho kinase inhibition assay (IMAP fluorescence polarization), ROCK1; assay type: biochemical;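 also: kinase reaction run 60 min at room temperature, then phosphorylated substrate captured on IMAP beads for 30 min, with fluorescence polarization read in mP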
[2] = biological target: Akt3 human enzyme (Homo sapiens, UniProt Q9Y243); assay: Akt3 inhibition assay (IMAP FP); assay type: biochemical;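 also: kinase reaction run 60 min at room temperature after 30 µM ATP start, phosphorylated substrate captured on IMAP beads and read as fluorescence polarization (mP)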
[3] = biological target: p70S6K human enzyme (Homo sapiens, UniProt P23443, T412E); assay: p70S6K inhibition assay (IMAP FP); assay type: biochemical;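 also: kinase reaction run at room temperature, phosphorylated substrate captured on IMAP beads and read as fluorescence polarization in mP, IC50 then converted to Ki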
[4] = Compound plasma concentrations in unsensitized mice at 15 min post administration; assay type: in vivo, mouse; conditions: mean compound plasma concentration in mice at 15 minutes post oral administration

Compound `Cc1ccc(CN2CCC[C@@H](Nc3ccc4[nH]ncc4c3)C2)cc1NS(C)(=O)=O` has a Ki ([1]; read-out: ROCK1 Ki, Avg, 10 μM ATP) of 9.5 nM, a Ki ([1]; read-out: ROCK1 Ki, average Ki) of 9.5 nM and a Ki ([2]; read-out: Akt3 Ki, Avg, 30 μM ATP, Ki=IC50/(1+([ATP Challenge]/EC50 ATP))) of 315 nM. The Ki ([2]; read-out: Akt3 Ki, average Ki) was 315 nM, the Ki ([3]; read-out: p70S6K Ki, Avg, 30 μM ATP, Ki=IC50/(1+([ATP Challenge]/EC50 ATP))) was 532 nM and the Ki ([3]; read-out: p70S6K Ki, average Ki) was 532 nM. The “Mouse Oral PK” value [4] was 567 nM.
